Reference: US12478680B2, “Hydrogels with biodegradable crosslinking” (ProLynx LLC, priority 2011, dated 2025)
At least one structure is not confirmed: it was looked up by name or label, or the drawing left a doubt.

Experiment: Diffusion of proteins or small molecule from hyaluronic acid hydrogel matrix
Format: physicochemical
Settings: stable hyaluronic acid hydrogel

N[C@@H](CCCCNc1ccc([N+](=O)[O-])cc1[N+](=O)[O-])C(=O)O [Lys (DNP)]
t1/2 (2K gel), half-life for diffusion from the gel (DBCO-HA crosslinked with diazido-PEG MW=2000): 0.96 h | t1/2 (5K gel), half-life for diffusion from the gel (DBCO-HA crosslinked with diazido-PEG MW=5000): 1.25 h
